Protein sequences, listed by entry. Tags and fused reporters are not part of them. Lines headed by an entry give the natural chain unless they say otherwise; changes in a name come on top.
UniProt F7VN14: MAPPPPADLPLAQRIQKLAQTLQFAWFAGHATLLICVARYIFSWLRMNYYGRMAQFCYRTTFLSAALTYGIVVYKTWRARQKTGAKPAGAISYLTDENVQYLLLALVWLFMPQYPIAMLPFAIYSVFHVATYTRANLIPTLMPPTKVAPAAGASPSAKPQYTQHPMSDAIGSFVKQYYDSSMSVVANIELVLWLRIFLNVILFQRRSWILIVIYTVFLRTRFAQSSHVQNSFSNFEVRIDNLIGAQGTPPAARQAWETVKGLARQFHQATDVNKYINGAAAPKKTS
UniProt F7W1K8: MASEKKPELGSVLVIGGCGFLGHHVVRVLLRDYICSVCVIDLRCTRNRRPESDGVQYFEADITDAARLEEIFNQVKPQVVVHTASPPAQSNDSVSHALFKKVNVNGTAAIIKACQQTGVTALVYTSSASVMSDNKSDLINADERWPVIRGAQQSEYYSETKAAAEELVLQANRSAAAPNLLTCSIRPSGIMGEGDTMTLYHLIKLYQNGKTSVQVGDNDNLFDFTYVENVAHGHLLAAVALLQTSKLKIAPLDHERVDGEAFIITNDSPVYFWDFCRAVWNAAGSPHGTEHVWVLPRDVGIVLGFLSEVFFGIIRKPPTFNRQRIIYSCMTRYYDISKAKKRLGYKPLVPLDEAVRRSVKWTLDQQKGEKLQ
UniProt F7W1W1: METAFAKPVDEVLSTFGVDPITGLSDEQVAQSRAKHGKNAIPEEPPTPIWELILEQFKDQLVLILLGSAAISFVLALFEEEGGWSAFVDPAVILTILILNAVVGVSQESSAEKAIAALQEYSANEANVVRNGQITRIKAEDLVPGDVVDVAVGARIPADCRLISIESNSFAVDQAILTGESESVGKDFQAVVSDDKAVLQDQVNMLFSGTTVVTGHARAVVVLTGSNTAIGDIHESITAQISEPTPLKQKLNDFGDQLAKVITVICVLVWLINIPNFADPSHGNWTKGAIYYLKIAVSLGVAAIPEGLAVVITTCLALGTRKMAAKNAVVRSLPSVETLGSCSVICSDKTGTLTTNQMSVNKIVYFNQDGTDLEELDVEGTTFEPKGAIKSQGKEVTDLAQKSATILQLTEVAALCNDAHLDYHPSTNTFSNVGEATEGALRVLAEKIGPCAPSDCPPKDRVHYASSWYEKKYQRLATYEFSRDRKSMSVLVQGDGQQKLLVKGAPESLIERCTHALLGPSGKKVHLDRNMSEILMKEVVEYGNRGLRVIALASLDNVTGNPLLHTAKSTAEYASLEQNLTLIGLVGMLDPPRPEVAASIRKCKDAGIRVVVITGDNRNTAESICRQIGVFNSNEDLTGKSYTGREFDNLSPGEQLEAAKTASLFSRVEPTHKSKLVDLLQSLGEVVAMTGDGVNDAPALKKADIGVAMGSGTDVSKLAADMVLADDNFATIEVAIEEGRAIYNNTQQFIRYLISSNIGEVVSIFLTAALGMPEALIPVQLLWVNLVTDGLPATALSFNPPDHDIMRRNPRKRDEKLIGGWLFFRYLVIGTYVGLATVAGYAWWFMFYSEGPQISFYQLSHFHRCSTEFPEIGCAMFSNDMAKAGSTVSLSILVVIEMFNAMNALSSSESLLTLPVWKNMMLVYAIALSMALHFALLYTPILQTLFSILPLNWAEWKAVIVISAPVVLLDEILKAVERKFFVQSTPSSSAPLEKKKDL
UniProt F7VTB9: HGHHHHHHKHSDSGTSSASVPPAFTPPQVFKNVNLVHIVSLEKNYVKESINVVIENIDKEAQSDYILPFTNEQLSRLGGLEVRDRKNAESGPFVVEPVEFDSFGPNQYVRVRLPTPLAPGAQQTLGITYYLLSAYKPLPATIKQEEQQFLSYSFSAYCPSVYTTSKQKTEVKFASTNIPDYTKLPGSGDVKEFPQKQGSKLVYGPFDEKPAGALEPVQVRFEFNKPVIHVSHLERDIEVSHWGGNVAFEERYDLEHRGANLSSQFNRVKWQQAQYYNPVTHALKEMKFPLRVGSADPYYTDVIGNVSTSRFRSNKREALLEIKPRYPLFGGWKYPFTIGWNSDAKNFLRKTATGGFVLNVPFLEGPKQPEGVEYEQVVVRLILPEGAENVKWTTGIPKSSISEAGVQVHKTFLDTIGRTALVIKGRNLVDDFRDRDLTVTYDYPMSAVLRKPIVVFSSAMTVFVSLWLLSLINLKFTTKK
UniProt F7VQK0: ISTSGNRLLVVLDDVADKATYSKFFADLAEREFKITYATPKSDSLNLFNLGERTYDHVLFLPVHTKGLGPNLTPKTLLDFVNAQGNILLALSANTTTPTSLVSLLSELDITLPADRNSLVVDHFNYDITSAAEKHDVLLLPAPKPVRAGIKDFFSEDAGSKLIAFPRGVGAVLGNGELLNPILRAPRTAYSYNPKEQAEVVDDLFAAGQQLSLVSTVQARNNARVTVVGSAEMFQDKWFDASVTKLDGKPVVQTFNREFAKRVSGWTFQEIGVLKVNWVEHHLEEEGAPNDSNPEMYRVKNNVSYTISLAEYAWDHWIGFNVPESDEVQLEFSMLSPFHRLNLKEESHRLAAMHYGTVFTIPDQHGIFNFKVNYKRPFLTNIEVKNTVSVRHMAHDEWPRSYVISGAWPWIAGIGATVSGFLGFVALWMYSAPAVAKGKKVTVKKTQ
UniProt F7VLY0: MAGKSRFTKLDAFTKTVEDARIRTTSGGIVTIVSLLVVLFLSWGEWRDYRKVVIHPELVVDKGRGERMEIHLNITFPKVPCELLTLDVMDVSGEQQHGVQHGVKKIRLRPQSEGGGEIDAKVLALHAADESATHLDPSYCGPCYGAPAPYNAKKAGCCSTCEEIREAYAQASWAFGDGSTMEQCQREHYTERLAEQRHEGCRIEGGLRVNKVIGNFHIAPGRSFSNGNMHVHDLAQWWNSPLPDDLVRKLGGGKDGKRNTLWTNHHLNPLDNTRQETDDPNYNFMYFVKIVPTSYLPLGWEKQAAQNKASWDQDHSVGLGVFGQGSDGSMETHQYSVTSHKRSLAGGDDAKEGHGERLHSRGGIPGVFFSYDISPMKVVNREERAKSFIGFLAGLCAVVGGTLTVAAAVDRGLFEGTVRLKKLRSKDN
UniProt F7VR85: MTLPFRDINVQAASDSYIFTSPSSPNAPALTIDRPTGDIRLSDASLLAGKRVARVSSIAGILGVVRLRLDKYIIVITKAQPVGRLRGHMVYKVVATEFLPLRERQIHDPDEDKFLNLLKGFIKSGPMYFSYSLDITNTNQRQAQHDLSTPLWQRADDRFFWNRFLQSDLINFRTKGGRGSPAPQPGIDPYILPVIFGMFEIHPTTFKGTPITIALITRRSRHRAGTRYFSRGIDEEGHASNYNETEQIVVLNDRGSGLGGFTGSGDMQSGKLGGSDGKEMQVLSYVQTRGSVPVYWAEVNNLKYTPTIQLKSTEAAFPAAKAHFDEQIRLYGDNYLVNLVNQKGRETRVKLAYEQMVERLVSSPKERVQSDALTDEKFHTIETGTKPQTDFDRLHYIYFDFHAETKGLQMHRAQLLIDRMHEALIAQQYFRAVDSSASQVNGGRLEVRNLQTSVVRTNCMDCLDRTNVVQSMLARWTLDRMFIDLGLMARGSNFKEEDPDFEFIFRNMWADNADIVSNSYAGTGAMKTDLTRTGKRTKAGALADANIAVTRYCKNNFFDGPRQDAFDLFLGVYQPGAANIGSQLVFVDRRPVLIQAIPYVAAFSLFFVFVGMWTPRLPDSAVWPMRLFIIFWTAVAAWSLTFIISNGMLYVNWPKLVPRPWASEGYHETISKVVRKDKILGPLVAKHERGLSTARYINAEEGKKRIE
UniProt F7WB25: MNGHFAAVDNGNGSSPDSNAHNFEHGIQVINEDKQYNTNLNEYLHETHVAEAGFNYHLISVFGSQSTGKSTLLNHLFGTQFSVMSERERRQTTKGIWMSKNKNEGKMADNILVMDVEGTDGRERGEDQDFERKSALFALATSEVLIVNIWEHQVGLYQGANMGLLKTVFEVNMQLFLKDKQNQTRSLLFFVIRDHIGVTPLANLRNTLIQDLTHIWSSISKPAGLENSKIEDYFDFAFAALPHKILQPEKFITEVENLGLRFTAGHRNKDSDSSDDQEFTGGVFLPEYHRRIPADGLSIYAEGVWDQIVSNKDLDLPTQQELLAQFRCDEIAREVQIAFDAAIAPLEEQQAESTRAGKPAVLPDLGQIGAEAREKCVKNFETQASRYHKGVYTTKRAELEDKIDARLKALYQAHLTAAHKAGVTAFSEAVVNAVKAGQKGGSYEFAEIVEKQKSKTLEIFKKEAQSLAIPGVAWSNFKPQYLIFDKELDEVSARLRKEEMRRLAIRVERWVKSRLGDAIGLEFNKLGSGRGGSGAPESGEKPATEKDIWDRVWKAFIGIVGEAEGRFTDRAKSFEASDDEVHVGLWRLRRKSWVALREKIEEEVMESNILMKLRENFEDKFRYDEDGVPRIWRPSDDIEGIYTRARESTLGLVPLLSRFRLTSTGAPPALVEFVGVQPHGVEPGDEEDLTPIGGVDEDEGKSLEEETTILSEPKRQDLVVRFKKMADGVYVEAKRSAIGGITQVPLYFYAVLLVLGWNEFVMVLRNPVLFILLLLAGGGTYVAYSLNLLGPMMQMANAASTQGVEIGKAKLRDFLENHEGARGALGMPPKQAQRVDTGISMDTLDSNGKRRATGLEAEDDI
UniProt F7W2Q6: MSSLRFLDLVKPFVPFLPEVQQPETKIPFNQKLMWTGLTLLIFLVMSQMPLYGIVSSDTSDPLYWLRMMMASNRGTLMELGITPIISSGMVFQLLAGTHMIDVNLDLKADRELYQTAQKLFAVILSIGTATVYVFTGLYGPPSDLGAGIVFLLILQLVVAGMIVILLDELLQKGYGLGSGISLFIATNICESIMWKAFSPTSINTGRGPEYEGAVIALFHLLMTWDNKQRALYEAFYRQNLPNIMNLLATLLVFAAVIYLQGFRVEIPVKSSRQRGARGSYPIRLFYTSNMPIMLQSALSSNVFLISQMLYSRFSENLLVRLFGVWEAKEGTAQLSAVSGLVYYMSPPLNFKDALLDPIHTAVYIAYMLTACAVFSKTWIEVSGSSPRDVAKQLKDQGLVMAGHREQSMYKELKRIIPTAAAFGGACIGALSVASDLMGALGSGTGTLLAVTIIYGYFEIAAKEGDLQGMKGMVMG

According to paper PMC8468769:

molecular target: SmPOM33-TagRFP-T (Sordaria macrospora) (UniProt F7VN14); test: affinity purification with mass spectrometry; POM33-TagRFP-T precipitated from S. macrospora mycelium lysate (lysis buffer without NP-40) with anti-TagRFP-T antibody and Protein G Dynabeads, 4 °C; control free TagRFP-T strain; LC/MS with label-free quantification, FDR 0.01, S0 0.1; two experiments, seven samples

Molecule	binding
C-3 sterol dehydrogenase/C-4 decarboxylase (SMAC_04350) (from UniProt F7W1K8)	binds
calcium-transporting ATPase SmNCA1 (SMAC_04583) (from UniProt F7W1W1)	binds
dolichyl-diphosphooligosaccharide-protein glycosyltransferase subunit 1 (SMAC_05819) (from UniProt F7VTB9)	binds
dolichyl-diphosphooligosaccharide-protein glycosyltransferase subunit WBP1 (SMAC_01348) (from UniProt F7VQK0)	binds
homolog of the S. cerevisiae COPII-coated vesicle protein ERV46 (SAMC_04901) (from UniProt F7VLY0)	binds
putative phosphatidyl inositol 4-phosphatase SAC1 (SMAC_01583) (from UniProt F7VR85)	binds
SEY1 (SMAC_08906) (from UniProt F7WB25)	binds
cytochrome P450 4A5 (SMAC_05894) (protein, UniProt F7W3F4 1-540) MAFGAAHLQLWLGALVVLGAVYTTCLVVYRLFLHPLAKYPGPLLAKLTDGYMAYHAFKGDRHLEFWRMHEKYGKFVRFGPNSLSVNSNTALKEIYGFKANVRKAEFYDAFVHPAPNTHNARDRDLHARKRRVLAHAFSDSAVKEVERYILANIRTFCDAIGDLGRSTVTSGFALADKKGWSTPKNMSDWCNWLAMDILGDLCFGKAFHMLEKPDNRYAVDLVSVAAHRHLICGTMPMLDKLSLDKIFLRKIASGRAQYMAYSRQQLAERTALGDETDRRDFFYHLLKARDPETGQGFTTPELWGESNLLIIAGSDTTSTAMAATLFYLVRNPSALARVTQEIRSRFSSVEDIHQGPALQSCTYLRACVDEAMRLSPSVGGLLPREVLPGGITIDGEHVPQGTIVGVPHYTIHHNAAYYPDPWSFTPERWLPTSTSSVATEKGVTATEEQIQLAQSAFCPFSIGPRGCIGKGLAYIEMSITLARTLFLYDLRRAVGVEDAAEGGKEGAEYGRHRKGEMQLVDTFTSTKDGVMIEFRRRDDL	binds
cytochrome P450 51 (SMAC_05737) (protein, UniProt F7VT37 1-531) MGVLQVIAGPLSQQFSQLGTFSQIGVAIASFLFVAVALNVLQQFLFKKPNEPPLVFHWFPIIGSTITYGMDPPRFFKENREKYGDCFTFILLGKKTTVYVGPKGNDFILNGKIRDVNAEEIYTVLTTPVFGKDVVYDCPNSKLMEQKKFMKIALTTDAFRQYVPIISDEVTNYLKRSADFKGKSGIVDIPPKMAQITIFTASHALQGKEIRDKFDETLADLYHDLDMGFSPINFMLHWAPLPWNNRRDYAQRTVAKIYMDTIKERRARGETGAQDIMWHLMNSTYKGDVPVPDHEVAHMMIALLMAGQHSSSSTSSWIMLRLASRPDIMEDLYNEQVKALGADLPPLTYEDLAKLPLHAAIVKETLRLHAPIHSIMRAVKTPMPVPGTKYVIPTDHVLLAAPGVSATDECYFPQPELWEPRRWEKDSPLAPTIIRNVPAEEDDEKIDYGYGLVSKGANSPYLPFGAGRHRCIGEQFANVQLQTITAIIVRNFKFRNVDGSDKVIGTDYASLFSRPLEPAKIYWERREGCQL	binds
reticulon-like protein (SMAC_00989) (protein, UniProt F7VNL7 1-361) MADNYAPADNYTLSGHHSNGSANLNPGSTNLDALKNNAASAYDAVTKGPVAQNVADQGAKTVDELSNLSASRRTPSTPAATGQPLTHYHSFFSELLSWNNPRASAIAYLSVVAGIFFVRYFDVLRLGFKLTWMVLGATVAAEVAGRTVLNQGLTTQLRPRKYYTVSKQTLDSAIGDVHELVNFFVIEAQRVLFAENVYVSGLVALSAFFAYYLVKIVPYWGLALVSTTLAFLGPLVYKTNKEVIDAQLHRASDVIGAQTAQLKTVAQQNTEKATQLTKQYVGEYTAKAQTLVGKATPASLSGEDHTNGHANGHADNLSTLREADFPPAPRADIKTELAAPIEPVVAVPVTVKSGEQQPLLI	binds
dolichyl-phosphate-mannose-protein mannosyltransferase (SMAC_02375) (protein, UniProt F7VPD9 1-750) MAAPTVGSERATMVSGADPLGDAVRRRNVASVTPTAFETPQSVDNKKAVVPVKKEQSFLDSIASREWIIAPLVFTFLAFFTRFYKIGLSPIVTWDEAHFGKFGSHYLKREFYFDVHPPAGKLLVGLSGLLAGYNGSFEFKSGETYPEEINYTFMRQFNAFWGAVCVPMAYYTAKELRFKLPAVWLVTLMVLCENSYTTISRFILLDSMLLFGTVATTLCWAKFHNLRRKSFSPEWFSWLFLTGLSIGFVCSVKWVGLFVTALVGLYTVEDLWNKFGDVKMPPKVLAAHFAARVVGLIILPFAIYLMSFAIHFIVLTNSGPGDAQMPSLFQANLRGTEVGRDSPLELALGSRVTIKNMGYGGGLLHSHVQTYPEGSNQQQVTCYHHKDSNNDWFFYPNRREQAYDESSDEIRYIGDGSTVRLIHAQTGRNLHSHEIPAPMTKADKEVSCYGNLTVGDEKDHWKIEVVKDTNSRDRSKIRTLTTAFRLKHEVLGCYLRAGTVNLPQWGFKQIETTCTKTNNPRDTYTHWNVESHTNPKLPPAEPGQYKNQFFQDFIHLNVAMMTSNNALVPDPDKQDDLASQWWQWPILHVGLRMCSWDDKTVKYFLLGNPLVYWGSTAGLGVFGLLVIWYTLRWQRGYNELNQDSIDQIHYAGIYPVIGWFLHYLPFIVMGRVTYVHHYYPALYFAILSFGFLADWFFRGKSKLTQSIGFGILYATVIGLYIFFMPISWGMVGPNQQYKYMKWFDNWRISD	binds
C-4 methylsterol oxidase (SMAC_00952) (protein, UniProt F7VNJ9 1-306) MATAVLNATVAGLSSTDTYFTVLEEVSKYNVQLSYVEKLWAAWYLWMQNDTLATGLMSFFMHEIVYFGRSIPWMIIDALPMFNKYKLQKGKRPTWKEQFECAGLVLLSHCTVELPQIWLFHPIATYFGLDYGVPFPPLWKMALHICIFFVMEDAWHYWFHRALHYGPLYKAIHKIHHTYSAPFGLAAEYASPIEVMLLGIGTVGSPILWVSFTKDLHLATMYVWIVLRLFQAIDAHSGYDFPFSLRHILPFWAGADHHDMHHERFIGNYASSFRWWDYCLDTEAGDVAAKARREKKLAAIKAKKAQ	binds

Second part, the molecule after the results:

binding	Molecule
binds	transport protein SEC61 subunit alpha (SMAC_05120) (from UniProt F7W2Q6 1-476)
binds	very-long-chain 3-oxoacyl-CoA reductase (SMAC_01146) (protein, UniProt F7VME1 1-339) MDKVAQVWGSVPQLWDSVPQYGQWALAGIGALYVATRVGAFLQLILNAFILSGTNLRKYGKKGTWAVVTGASDGLGKEFAQQLASKGFNLVLVSRTQSKLDTLARELELRWDGLKTKTFAMDFSKDDDSDYERLAELIKGLDIGILINNVGQSHSIPVPFLQTDRDELQNIVTINCLGTLKTTKVVAPILAQRKKGLILTMGSFAGVMPTPYLATYSGSKAFLQHWSSALSSELKDQGVDVHLVVSYLVTTAMSKIRRTSLLIPNPKQFVRSALGKVGLNSSEPFPNTYTPWWSHAVFKWVIENTVGVYSYFTLKLNKNMHVDIRNRALKKAAREAKKQ
binds	sterol 24-C methyltransferase (SMAC_01214) (protein, UniProt F7VQ64 1-382) MPSAPQVVALEKEDHQRDAEFKKVMHGDSAKAAGGVAALLKKNTEAQQIAVDEYFKHFDNKTAEGETQADREARTKEYATLTRHYYNLATDIYEYGWGQCFHFCRFSPGEPFYQAIARHEHYLASQIGIKKGMKVLDVGCGVGGPAREIAKFTDAHITGLNNNDYQIDRATHYAVRDGLSGQLKFVKGDFMQMSFPDNSFDAVYAIEATVHAPKLEGVYGEIYRVLKPGGVFGVYEWLMTDNYDNDNVEHRDIRLAIEVGNGISNMVPISEGLAAMKNVGFELLHHEDLADRNDPMPWYWPIAGELGYMQSYLDFFTVVRMTHTARRILHGFAGVLETVGLAPKGTKKTADALARGADGLVAGAKKNLFTPMYLMVGKKPLN
binds	squalene synthase (SMAC_07413) (protein, UniProt F7VM49 1-484) MGAFTKAAYFLLHPNQLRSIVQWKVWHDPVHKRDPSKETETEKACFRHLELTSRSFSAVIQELNPELLMPICLFYLVLRGLDTIEDDMTIDLAKKEPLLRGFADLMEIDGWTFTENGPNEKDRELLVHFDDVISELKKVKKPYYDIIREITVKMGNGMADYALNAEHNTNGVNTIEEYELYCHYVAGLVGEGLTRLFVESDLANPALLERMELTESMGQFLQKTNIIRDIHEDFVDKRRFWPKTIWSKYVNNWEDMFKLENREKALQCSSEMVLNALKHTEECLFYMAGIRDQSVFNFVAIPQAMAIATLELVFRNPAIFERNVKITKGDACQLMMESTQNLRVLCEVFRRYARRIHKKNDPRDPNYLAISVQCGKIEQFIESIFPTQDPKKIALTQVQNTNAESVNTMDTGETTFLVASVLGVLFVIGGLMMGAAWLMGARFDMAYDDITSRVGTLVKGAAEVSSVTVSSITSIPTTVVHQEL
binds	squalene monooxygenase (SMAC_00934) (protein, UniProt F7VNI0 1-524) MTIETDSAEVRNAQRREQHHEADVVIVGAGVFGCAAAYALANQGRSVILLERWMHEPDRIVGELLQPGGLQALQSFGLGHCVEGIDAITCYGYHVVFHGEEVAIPYPVVDDQGKVYSGEAAARVESTTTTTTSTPNGKTHNGPKLRRPEGRSFHHGRFISQLRKACAAHPNITMFETTVTSVIRGSHSEQVLGVETLTTDRETGEKQPDFFFGQLTLIADGYDSKFRKQLLPSGTTPVVRSKFYALELIDCPFPPSNYGHVVIGKTSPVLLYQIGTHETRALIDIPHNLTAASAANGGVRGYIENIVVPTLPESVRPSVLASLKDGKIPRSMPNSYLPASGKANTSRTPGVLLLGDAYNMRHPLTGGGMTVAFSDVVLLASLLHPDRVPNLADANAVEQAMKEFHWRRKAWTSIINTLAQALYSLFAADDWQLDALRKGCFAYFQMGGAKTDEPVALMGGLLHEPTVLARHFFTVAFVAIWLHWCERVGSFWGLWKAPLLLVDAVLILWRACVVFLPTIWKEAV

No constants are given. Whether binding was seen depends on the method and setting. Binding seen in cells or lysates may run through a third protein. Here binding means that the protein was enriched with, or labelled near, the bait; the list need not be complete.
